Results are given in words; binding and its absence hold for the method and conditions named. In cells and extracts the contact can be indirect. Some entries that bind do so weakly or less than the wild type. Tags and fused reporters may be left off the sequences shown.
Target: PD-1 (endogenous, in Jurkat cells) (human (endogenous in Jurkat)) (UniProt Q15116)
Test: proximity ligation; endogenous FBXO38-HA and endogenous PD-1 in FBXO38-HA knockin Jurkat cells; signal seen in the cytoplasm; representative image and PLA signal quantification

By UniProt entry, the sequences of proteins in these tests, tags left out. Residues count along the entry.
UniProt Q15116, residues 25-288: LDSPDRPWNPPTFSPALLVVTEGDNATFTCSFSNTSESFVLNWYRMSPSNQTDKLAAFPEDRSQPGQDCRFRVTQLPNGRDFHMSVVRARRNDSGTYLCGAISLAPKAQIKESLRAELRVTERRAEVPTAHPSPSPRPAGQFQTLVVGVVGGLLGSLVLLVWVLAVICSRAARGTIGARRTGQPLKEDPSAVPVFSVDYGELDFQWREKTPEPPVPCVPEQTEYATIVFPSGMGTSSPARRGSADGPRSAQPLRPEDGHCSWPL

binding: binds
B1: FBXO38-HA (endogenous FBXO38 in FBXO38-HA knockin Jurkat cells) (protein, UniProt Q6PIJ6 1-1188)
chain: MGPRKKSVKTCIMNNEIPEEMTADETKDYMNQLSHEVLCHIFRYLPLQDIMCMECLSRKLKEAVTLYLRVVRVVDLCAGRWWEYMPSGFTDASFLTLLKKMPDVEQLYGLHPRYLERRRVRGHEAFSIPGVLEALQACPNLVGVETSHLELVESIWTYMPHVHILGKFRNRNGAFPIPPENKLKIPIGAKIQTLHLVGVNVPEIPCIPMLRHLYMKWVRLTKPQPFKDFLCISLRTFVMRNCAGPTNSLKYVPLVTGLASARNLEHLEMVRVPFLGGLIQHVVEDSWRSGGFRNLHTIVLGACKNALEVDLGYLIITAARRLHEVRIQPSLTKDGVFSALKMAELEFPQFETLHLGYVDEFLLQSRMANADLVKYGLADVVENPGIITDIGMKAVNEVFSCIKYLAIYNCPHLHNPYNWISDHSRWTRLVDINLVRCHALKLDSFGQFIELLPSLEFISLDQMFREPPKGCARVGLSAGTGIGVSSALVSNQNSNNDDNNAQNNNANIHDNNHHHPDDSDEENDFRQDLQPGEQQFAADALNEMEDIVQEDGEVVAESGNNTPAHSQAIIPVDVDEEQAGPSGLQRVVKPTSITVHDSESDDEEDSLELQEVWIPKNGTRRYSEREEKTGESVQSRELSVSGKGKTPLRKRYNSHQMGQSKQFPLEESSCEKGCQVTSEQIKADMKAARDIPEKKKNKDVYPSCSSTTASTVGNSSSHNTASQSPDFVRTVNSGGSSEPSPTEVDVSRQCACSPGGSEDSEAMEEGDAESSVCPRCCCHRPQESQRRTSRCSDEERPSTSRACVVNGPDGTRSAFSFRTLPQGGSSGPAHDERTNGSGSGATGEDRRGSSQPESCDVQSNEDYPRRPLTRARSRLSHVLLVSESEVAKTKPRHAMKRKRTADKSTSTSDPVIEDDHVQVLVLKSKNLVGVTMTNCGITDLVLKDCPKMMFIHATRCRVLKHLKVENAPIVNRFDYAQCKKLNMDQVLDQILRMPPERNRIIYLRPMQQVDTLTLEQKLFSGPYPYHICIIHEFSNPPNVRNKVRIRSWMDTIANINQELIKYEFFPEATRSEEDLKKYPKYPWGREIYTLEGVVDGAPYSMISDFPWLRSLRAAEPNSFARYDFEDDEESTIYAPRRKGQLSADICMETIGEEISEMRQMKKGVFQRVVAIFIHYCDVNGEPVEDDYI
